According to PubChem BioAssay AID493014 (National Center for Advancing Translational Sciences (NCATS), 2011):
The whole screen tested about 340,000 compounds, of which about 170 (0.05%) were called active. Inconclusive results, whose numbers are uncertain, are shown with a selection of clear calls. The call rests on the fitted dose curve; in most records, active means well fitted inhibition curve with a large enough effect in the signal ratio, with a control signal flat (not every such curve was filed as active); inconclusive means small, poorly fitted or top-dose-only effect, or effect the other way, or a change in a side signal; inactive means flat fitted curve, though single readings scatter; the % refers to the signal ratio. Potencies beside an inconclusive call are fits to weak or partial responses and may not hold up. Peptide text beside a SMILES is read from it. * marks the point of attachment. Boc = CC(C)(C)OC(=O)*
Potency means the concentration at half of the fitted maximal effect.

Test: qHTS Assay to Find Inhibitors of Chronic Active B-Cell Receptor Signaling;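 on activity change, negative = inhibition: plate controls were basal doxycycline-induced cells for no effect and cells given 10 µM MG132 for full effect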
Settings: ABC-DLBCL IkBa-CBG/CBR reporter, luminescence ratio (green luciferase fused to IkBa over red control in TMD8 lymphoma cells), 4 h; activity change, negative = inhibition: at 46.1 µM (top of the series)
In short: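 Concentration-response series (up to 46 uM) were applied to TMD8 dual-reporter cells for 4 h at 37C with doxycycline. Green/red ratio, after filter-overlap correction, defined %Activity; red signal alone was normalised to basal cells and zero luminescence.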
For `CCCCN(C(=O)CSc1nnnn1C)c1c(N)n(Cc2ccccc2)c(=O)[nH]c1=O`, the activity change, negative = inhibition was inconclusive: 1.06%.
In the case of `Cc1nn(Cc2ccc(C(=O)N3c4ccc(F)cc4CCC3C)o2)c(C)c1Br` (configuration not stated), the activity change, negative = inhibition is reported as inconclusive: -16.4%.
With `COc1ccc(NC(=O)CN2C(=O)COc3ccc(S(=O)(=O)Nc4ccccc4)cc32)cc1OC` the “activity change, negative = inhibition” value was inactive: 8.12%.
For `COc1ccc(-c2nn(-c3ccccc3)cc2CO)cc1OC`, the activity change, negative = inhibition was inconclusive: -6.38%.
For `Cc1c(C)n(C)c2ccc(C(=O)NCc3cccs3)cc12`, the activity change, negative = inhibition was inconclusive: -3.42%.
With `O=C(Cn1cnc2sc(-c3ccccc3)cc2c1=O)NCCc1ccccc1` the activity change, negative = inhibition was inconclusive: -0.893%.
With `COc1ccc(S(=O)(=O)N(C)C[C@@H]2Oc3ccc(NC(=O)Nc4c(C)noc4C)cc3C(=O)N([C@H](C)CO)C[C@@H]2C)cc1` the activity change, negative = inhibition was inconclusive: 1.39%.
With `Cc1ccc(NC(=O)c2cnc3ccccc3n2)cc1C` the activity change, negative = inhibition was inconclusive: 16.5%.
With `COc1ccc(CNC(=O)Nc2cccc3ccccc23)cc1` the “activity change, negative = inhibition” value was inactive: -14.8%.
With `CSCCC(NC(=O)CCC(=O)OCC(=O)[C@@]1(O)CCC2[C@@H]3CCC4=CC(=O)C=C[C@]4(C)C3[C@@H](O)C[C@@]21C)C(=O)O` (some centres not stated) the activity change, negative = inhibition was inconclusive: -18.9%.
With `COc1ccc(Br)cc1/C=N/NC(=O)c1cc(OC)c(OC)c(OC)c1` the Potency was inconclusive: 20.6 µM [falling, single point].
In the case of `Cc1cc(NC(=O)CN2C(=O)N(C)C3(CCCCC3)C2=O)ccc1Br`, the “activity change, negative = inhibition” value is reported as inactive: 2.02%.
With `O=c1oc(-c2ccc(F)cc2)nc2ccsc12` the Potency was inconclusive: 4.11 µM [falling, partial curve].
For `Cc1ccc(S(=O)(=O)CCC(=O)Nc2cccc(S(=O)(=O)N3CCCCCC3)c2)cc1`, the activity change, negative = inhibition was inconclusive: 1.09%.
For `COc1cc(S(=O)(=O)n2ccnc2)ccc1Br`, the activity change, negative = inhibition was inconclusive: -9.96%.
With `Cc1sc2ncnc(Sc3ccccc3C(=O)Nc3ccc(C#N)cc3)c2c1C` the “activity change, negative = inhibition” value was inactive: -0.338%.
In the case of `Cc1nn(-c2ccccc2)c(=O)c2ccccc12`, the “activity change, negative = inhibition” value is reported as inactive: -10.3%.
With `COc1cccc(CN(C)CC(=O)Nc2cccc(C(F)(F)F)c2)c1OC` the activity change, negative = inhibition was inconclusive: -2.1%.
In the case of `O=Cc1s/c(=N\S(=O)(=O)c2ccccc2)n(CCCCl)c1Cl`, the Potency is reported as inconclusive: 3.98 µM [cytotoxic, single point].
In the case of `COc1ccc(CCNc2nc3c(c(=O)n(C)c(=O)n3C)n2C)cc1OC`, the activity change, negative = inhibition is reported as inconclusive: 16.3%.
For `O=C(NC(=S)Nc1ccc(N2CCOCC2)cc1)c1cccc(Cl)c1`, the activity change, negative = inhibition was inconclusive: -1.26%.
With `CC1Oc2ccccc2N(CC(=O)c2cccc(Cl)c2)C1=O` (configuration not stated) the “activity change, negative = inhibition” value was inactive: -7.9%.
For `CC(=O)Nc1sc(N/N=C\c2cccc(Cl)c2)nc1-c1cccs1`, the Potency was inconclusive: 23.1 µM [falling, single point].
For `CN(C)c1ccc(-c2cc([C@H]3[C@@H]4C=CCC[C@@]4(C)C(=O)N3Cc3ccccc3)ccc2F)cc1`, the activity change, negative = inhibition was inconclusive: 1.85%.
With `CCOCCOC(=O)c1[nH]c2c(c1C)C(=O)CC(c1ccccc1)C2` (configuration not stated) the activity change, negative = inhibition was inconclusive: -17.4%.
With `CCCCN(CC)CCNC(=O)c1cc2c(-c3ccccc3F)nn(C)c2s1` the activity change, negative = inhibition was inconclusive: -20.8%.
With `COc1ccc(/C=N/NC(=O)COc2ccc3ccccc3c2)c(C(=O)O)c1OC` the “activity change, negative = inhibition” value was inactive: -4.37%.
For `CCC/C=N/NC(=O)c1ccc(F)cc1`, the Potency was inconclusive: 17.8 µM [falling, partial curve].
With `Fc1ccc(NC(=S)N2CCSC2c2cccs2)cc1` (configuration not stated) the “activity change, negative = inhibition” value was inactive: 0.0984%.
For `Cc1ccc(-n2nc(C)c3c(C)c(CCC(=O)NCCCOC(C)C)c(C)nc32)cc1`, the activity change, negative = inhibition was inconclusive: -1.56%.
In the case of `Cc1ccc(NC(=O)c2cccs2)cc1NC(=O)c1ccc(F)cc1`, the activity change, negative = inhibition is reported as inconclusive: -14.1%.
With `Cc1cccc(Cn2c(CN3CCN(Cc4ccccc4)CC3)nc3c2c(=O)[nH]c(=O)n3C)c1` the “activity change, negative = inhibition” value was inactive: -22.1%.
With `CC1(C)Cc2ccccc2C(Nn2cnnc2)=N1` the “activity change, negative = inhibition” value was inactive: 3.66%.
For `CN(C)S(=O)(=O)c1ccc(C(=O)NCCSc2ccccc2)cc1`, the activity change, negative = inhibition was inconclusive: 5.09%.
For `CCc1ccc(C(=O)COC(=O)C2=NN(c3ccccc3)C(=O)CC2)cc1`, the “activity change, negative = inhibition” value was inactive: -3.69%.
With `CCOC(=O)c1cc(=O)n(Cc2ccccc2C)c2ccccc12` the activity change, negative = inhibition was inconclusive: -17.1%.
With `Cn1cc(CN2CCCC(C(=O)Nc3cccc(-c4cc5ccccc5[nH]4)c3)C2)cn1` (configuration not stated) the activity change, negative = inhibition was inconclusive: -14.8%.
With `CN(C)c1ccc(NC(=O)CCN2C(=O)c3cccc([N+](=O)[O-])c3C2=O)cc1` the “activity change, negative = inhibition” value was inactive: 3.74%.
For `CC1(C)COC(/C=C/c2ccc([N+](=O)[O-])cc2)=N1`, the Potency was inconclusive: 18.4 µM [falling, partial curve].
With `COc1c(C)cc(C(=O)C2CCCN(Cc3cnc(N4CCOCC4)s3)C2)cc1C` (configuration not stated) the activity change, negative = inhibition was inconclusive: -19.5%.
For `CCOC(=O)Cn1c(CN(Cc2ccccc2)Cc2ccccc2)nc2c1c(=O)n(C)c(=O)n2C`, the activity change, negative = inhibition was inconclusive: -1.71%.
For `Cc1nc(Br)c(Br)c(C)c1Br`, the activity change, negative = inhibition was inconclusive: 0.871%.
For `Cc1ccc(C(=O)NNC(=O)c2cccs2)cc1`, the Potency was inconclusive: 35.5 µM [falling, single point].
In the case of `CCOC(=O)NCc1ccc2c(c1)cc(C)n2C`, the activity change, negative = inhibition is reported as inconclusive: -4.15%.
With `CC(=O)Nc1ccc(NC(=O)C(C)Oc2ccccc2C(=O)NCc2ccccc2)cc1` (configuration not stated) the activity change, negative = inhibition was inconclusive: -0.349%.
With `CN(CC(=O)Nc1ccccc1Br)C(=O)c1cc(S(=O)(=O)N(C)C)ccc1N1CCCC1` the “activity change, negative = inhibition” value was inactive: 5.98%.
In the case of `O=C(Nc1ccc2c(c1)OCO2)c1ccc(Cl)s1`, the Potency is reported as inconclusive: 25.9 µM [falling, partial curve].
For `C[C@]12CC[C@H]3C(=CCc4cc(O)ccc43)[C@@H]1CCC2=O`, the activity change, negative = inhibition was inconclusive: -2.92%.
For `O=C(COC(=O)c1ccc(S(=O)(=O)C(F)F)cc1)Nc1ccccc1C(=O)NC1CC1`, the activity change, negative = inhibition was inconclusive: 8.52%.
In the case of `COc1ccccc1N(C(=O)c1snc(C(N)=O)c1N)C(C(=O)NC1CCCCC1)c1cccc(OC)c1OC` (configuration not stated), the Potency is reported as inconclusive: 20 µM [falling, partial curve, poor fit].
In the case of `Cc1noc(C)c1COc1ccc(C(=O)O)cc1`, the activity change, negative = inhibition is reported as inconclusive: 3.85%.
With `COc1ccccc1NC(=O)CCNS(=O)(=O)c1ccc2[nH]c(=O)oc2c1` the “activity change, negative = inhibition” value was inactive: 1.74%.
For `COc1cc(CC(=O)O)c([N+](=O)[O-])cc1OC`, the activity change, negative = inhibition was inconclusive: 2.06%.
With `O=C(Nc1ccncc1)c1ccc2ncsc2c1` the Potency was inconclusive: 4.61 µM [falling, partial curve].
With `COc1ccccc1N1CCN(S(=O)(=O)c2ccc(Cl)cc2)CC1` the activity change, negative = inhibition was inconclusive: -0.742%.
For `O=C(CSc1nc2ccccc2o1)Nc1nncs1`, the Potency was inconclusive: 23.1 µM [falling, single point].
For `CCCCCNC(=O)CSC1=N/C(=C\c2ccc(Cl)c(Cl)c2)C(=O)N1CC`, the activity change, negative = inhibition was inconclusive: 23.7%.
For `Cc1c(Cl)cccc1NC(=S)NCC1COc2ccccc2O1` (configuration not stated), the activity change, negative = inhibition was inconclusive: -14.7%.
In the case of `O=C(CNC(=O)c1ccc2c(c1)S(=O)(=O)N=C1CCCCCN12)Nc1ccc(F)c(F)c1`, the activity change, negative = inhibition is reported as inconclusive: -6.39%.
For `Cn1cnnc1Sc1ccc(C(=O)OCC(=O)Nc2ccccc2)cc1[N+](=O)[O-]`, the “activity change, negative = inhibition” value was inactive: 6.08%.
For `O=C(COC(=O)C1CCN(/C=C/C(=O)C(F)(F)F)CC1)Nc1ccccc1`, the activity change, negative = inhibition was inconclusive: -1.77%.
For `COc1ccc(S(=O)(=O)N2CCCC(C(=O)NCC3CCCO3)C2)cc1Cl` (configuration not stated), the activity change, negative = inhibition was inconclusive: -25.7%.
For `OCCC1CN(Cc2ccc(F)cc2Cl)CCN1CCc1ccccc1` (configuration not stated), the “activity change, negative = inhibition” value was inactive: -4.42%.
In the case of `COc1ccccc1-n1cn[nH]c1=S`, the Potency is reported as inconclusive: 25.1 µM [falling, partial curve].
With `O=C(NCCc1c[nH]c2ccccc12)/C(=C/c1cccnc1)NC(=O)c1cccs1` the “activity change, negative = inhibition” value was inactive: -6%.
With `COc1ccc(S(=O)(=O)n2nc(C)c(S(=O)(=O)N3CCOCC3)c2C)cc1OC` the “activity change, negative = inhibition” value was inactive: 3.72%.
In the case of `CN(C)N=Nc1nc2c(c(=O)n(C)c(=O)n2C)n1CC1CO1` (configuration not stated), the activity change, negative = inhibition is reported as inconclusive: 5.86%.
In the case of `O=c1c(Cl)c(Cl)cnn1Cc1ccccc1Cl`, the activity change, negative = inhibition is reported as inconclusive: 7.71%.
In the case of `COc1cc([N+](=O)[O-])ccc1NC(=O)Nc1cccnc1`, the activity change, negative = inhibition is reported as inconclusive: 4.54%.
In the case of `O=C(O)/C=C/C(=O)Nc1ccc2c(c1)C(=O)c1ccccc1C2=O`, the Potency is reported as inconclusive: 11.2 µM [rising, partial curve, poor fit].
For `CCCCCCC(=O)N(O)C1CC(=O)N(c2ccc(Br)cc2)C1=O` (configuration not stated), the Potency was inconclusive: 29.1 µM [falling, single point].
In the case of `COC(=O)c1c(-c2ccccc2)noc1C`, the activity change, negative = inhibition is reported as inconclusive: 5.68%.
For `COc1ccccc1/C=C1/C(=O)N(c2ccc([N+](=O)[O-])cc2)N=C1C`, the “activity change, negative = inhibition” value was inactive: 4.11%.
In the case of `COc1ccc(NC(=O)Nc2ccccc2)cc1S(=O)(=O)N1CCCCC1`, the activity change, negative = inhibition is reported as inconclusive: -0.326%.
In the case of `CC(C)CC(NC(=O)OC(C)(C)C)C(=O)NC(C(=O)N1CCCC1C(N)=O)C(C)C` (stereo not drawn) (Boc-Leu-Val-Pro-NH2; configuration not given here), the activity change, negative = inhibition is reported as inconclusive: 4.82%.
With `N/C(=N\OC(=O)c1ccc(Cl)cc1)c1nonc1N` the activity change, negative = inhibition was inconclusive: 7.7%.
In the case of `Cc1sc(NC(=O)C2CCCCC2C(=O)O)c(C(N)=O)c1-c1ccc(C(C)C)cc1` (configuration not stated), the activity change, negative = inhibition is reported as inconclusive: 9.29%.
With `CCOc1cc(CNC(=O)CCCn2c(=O)c3cccn3c3cccnc32)cc(OCC)c1OCC` the “activity change, negative = inhibition” value was inactive: -2.3%.
In the case of `O=C1/C(=C\c2ccco2)SC(=S)N1C1CCS(=O)(=O)C1` (configuration not stated), the “activity change, negative = inhibition” value is reported as inactive: -2.72%.
With `COc1cc(NC(=S)Nc2cccc(Cl)c2Cl)c(OC)cc1Cl` the “activity change, negative = inhibition” value was inactive: -4.99%.
In the case of `COc1cc(/C=N/NC(=O)c2ccc(N)cc2)ccc1OC(=O)c1cccc(C)c1`, the Potency is reported as inconclusive: 25.1 µM [falling, single point].
In the case of `COc1ccc(OC)c(CNC(=O)CCCc2cn(C)c3ccccc23)c1`, the Potency is reported as inconclusive: 23.1 µM [falling, partial curve, poor fit].
